# Assay results: PMC7819943, “Rice protein-binding microarrays: a tool to detect cis-acting elements near promoter regions in rice”
# Sequences of proteins named here, by UniProt entry; tags and fusion partners are left off.
# UniProt Q0JBA9, entry or part of it: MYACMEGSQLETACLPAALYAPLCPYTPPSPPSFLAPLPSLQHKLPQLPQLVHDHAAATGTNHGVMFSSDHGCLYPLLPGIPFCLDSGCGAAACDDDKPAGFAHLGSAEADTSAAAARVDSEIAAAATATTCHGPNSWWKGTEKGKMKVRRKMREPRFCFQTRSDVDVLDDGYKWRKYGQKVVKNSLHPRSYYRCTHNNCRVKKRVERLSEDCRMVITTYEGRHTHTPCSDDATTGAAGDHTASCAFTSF
# The other results are listed elsewhere or left out.
# Target: OsWRKY34 (Oryza sativa, UniProt Q0JBA9 1-250)
# Experiment: protein-binding microarray (RPBM); PBS, 2% BSA, 51.3 ng/ul salmon testes DNA, 50 uM zinc acetate, 200 nM TF, 25 C, 1 h; high values mean tight binding
# Settings: protein: recombinant; tags: N-terminal polyhistidine and DsRed monomer fusion (pET32a); label: CyDye5-dUTP incorporated in the synthesized complementary strand; 3' TTTTT single-stranded linker to array surface; dsDNA, one strand shown
# Method in brief: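 Polyhistidine-tagged DsRed fusions of transcription factors, joined at the N-terminus, were expressed in E. coli BL21-CodonPlus and isolated on Ni–NTA. They were incubated at 200 nM for 1 h at 25 °C on a custom Agilent array, double-stranded and BSA-blocked, in PBS with 2% BSA, salmon testes DNA and 50 µM zinc acetate. The binding signal is per-feature fluorescence intensity (arbitrary units) read on an Axon 4000B scanner after washing.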
row,Sequence,binding signal
1,TCATGTGCCTCAACTTTTTTTACCACCCAATCCGCGTGCCCGGAGTCACCTAGTGCAG,8120 fluorescence intensity (a.u.)
2,TTCACGTCTCTTTCACATGTGCTTACAGTCGACTCGACTTCGGAGTCACCTAGTGCAG,8710 fluorescence intensity (a.u.)
3,GGTTTTGCGGTTCGATGATGATTTCGTATCTCGCTGACAACGGAGTCACCTAGTGCAG,8640 fluorescence intensity (a.u.)
4,AATCGATCTCCAATGCTCTGATACCACTTGTTATGAAAATCGGAGTCACCTAGTGCAG,8120 fluorescence intensity (a.u.)
5,ACTTCACTTCGCTCACCACATCACCACCTCACTCCACTAACGGAGTCACCTAGTGCAG,9760 fluorescence intensity (a.u.)
6,CGCGTAACCCACCCAATGTTTCACTCCTGCAGCACTTGACCGGAGTCACCTAGTGCAG,9370 fluorescence intensity (a.u.)
7,ACTTCGTCCTGCTACCGCTTGTTGACACTAGCCTCCTCACCGGAGTCACCTAGTGCAG,9050 fluorescence intensity (a.u.)
8,ATTTTTCTCCACGGGCAACAGTACATCGCCTGTCTTCTCTCGGAGTCACCTAGTGCAG,8050 fluorescence intensity (a.u.)
9,GGGCAACTTCCACTTGTACTACAAACCCTCTTATCTCAGACGGAGTCACCTAGTGCAG,10100 fluorescence intensity (a.u.)
10,TCATTGCACCTCTCATTTAACAAGGGATATAATAGTTCTTCGGAGTCACCTAGTGCAG,8360 fluorescence intensity (a.u.)
11,GCACACCAACTCGTCGATTCTTCCGGCAAATTCTTGCTTGCGGAGTCACCTAGTGCAG,8190 fluorescence intensity (a.u.)
12,TCGTTGTGTTTCATAGTTGTTTCGCCACATGTTTTTGTCTCGGAGTCACCTAGTGCAG,11300 fluorescence intensity (a.u.)
13,GTCGTCGTCCATGCCGCTCGCCTCCTTTTCTCCACTGTCGCGGAGTCACCTAGTGCAG,10100 fluorescence intensity (a.u.)
14,CCCATCGCATCCGCATCTCGGCATCTCGCGTCGCGACCCGCGGAGTCACCTAGTGCAG,10700 fluorescence intensity (a.u.)
15,ACATGTCCTTTTACGCTTATTTTCTACAATAACAACTATACGGAGTCACCTAGTGCAG,9910 fluorescence intensity (a.u.)
16,ACAGCTTCGTTCTTGACTTAATTAGGTCATTTTTTTGCAACGGAGTCACCTAGTGCAG,11200 fluorescence intensity (a.u.)
17,TTGATCTCAATCGCCGCCGCCGCCGCCGCCGCCGTCGCGGCGGAGTCACCTAGTGCAG,8260 fluorescence intensity (a.u.)
18,TTTCTGTCATATGAAAGTCTTGGTCTTGGTCGTCTGCTCGCGGAGTCACCTAGTGCAG,11100 fluorescence intensity (a.u.)
19,AGTGATTTTCGGTTAGTCCCGTCTTTTTCCAATGTGTGTTCGGAGTCACCTAGTGCAG,8920 fluorescence intensity (a.u.)
20,AGTTGGAGTTCTCATTTTAAAAGTGTATTGGTGTTCCTTTCGGAGTCACCTAGTGCAG,10400 fluorescence intensity (a.u.)
21,CCGCTGTCGTCGTCTCGTCTCTGTGTGTGTGTCTCCATCACGGAGTCACCTAGTGCAG,8280 fluorescence intensity (a.u.)
22,GGGAGAGCACGGGTGGGACGAGAGGGAGGAGGGGACTGGGCGGAGTCACCTAGTGCAG,12000 fluorescence intensity (a.u.)
23,ATAGTTGGTGTGTTGATTTGCCGGGTCGATTAGATCTACCCGGAGTCACCTAGTGCAG,11200 fluorescence intensity (a.u.)
24,CACTACCCTCACCCCATCTTCGATCACCTTCCGCCTCCCGCGGAGTCACCTAGTGCAG,8090 fluorescence intensity (a.u.)
25,CGGCTGTGGATGTGTAGATGTAATTTTTTTTTTCAATCCTCGGAGTCACCTAGTGCAG,9930 fluorescence intensity (a.u.)
26,TGGATCGTGGATGGACGGCGCCTATTTGATGTGGCTTTTCCGGAGTCACCTAGTGCAG,11100 fluorescence intensity (a.u.)
27,GGTCATTCCTGTGTTTTGCAATCCTCTGTTTTTCCTGCTACGGAGTCACCTAGTGCAG,12000 fluorescence intensity (a.u.)

row,Sequence,binding signal
1,TGTTTGTATGGGATTTTAGTGGGGTGTGGATTTTGACGGTCGGAGTCACCTAGTGCAG,9550 fluorescence intensity (a.u.)
2,CTCTCTCTCAGTCTCTACTCCTAGCTCGAGCTCCAATCTCCGGAGTCACCTAGTGCAG,10700 fluorescence intensity (a.u.)
3,CCACCAGTTCACCACCGCTGAAAGAATCAGCAGCAGCAGCCGGAGTCACCTAGTGCAG,8080 fluorescence intensity (a.u.)
4,TTGGTTTGTTTGTTTATGGCGATCTGTTGTTTGCTAGTTGCGGAGTCACCTAGTGCAG,8810 fluorescence intensity (a.u.)
5,AAAACCGCTTGTTTTTCGTTGCTGTACTCGTGTTGGAAGCCGGAGTCACCTAGTGCAG,9680 fluorescence intensity (a.u.)
6,GTCGGTGTCATCTCTCCTGCGAGCTACCGCGGCGGACATGCGGAGTCACCTAGTGCAG,9180 fluorescence intensity (a.u.)
7,CCCGCGTCTCGGCCCTCTCCGTCCTCGTTGCTTCCGACGCCGGAGTCACCTAGTGCAG,8780 fluorescence intensity (a.u.)
8,TTTCTTACCACCTTTGCTTGGCTTTACACCTCTTGTATGCCGGAGTCACCTAGTGCAG,9420 fluorescence intensity (a.u.)
9,CGATTTATGTGCCGGGGAGTACCCTCACTCTCGAACAGAGCGGAGTCACCTAGTGCAG,13200 fluorescence intensity (a.u.)
10,ACGTTTATTTCTTCTGTTGAAAAATGCGCAGTGCTTTTTCCGGAGTCACCTAGTGCAG,9960 fluorescence intensity (a.u.)
11,GGGCGGTGCTCCGTTGACCGTGATGGAGCCGTTCCAGTACCGGAGTCACCTAGTGCAG,12900 fluorescence intensity (a.u.)
12,CACATATTGATCTATTCTACTAAATTTTTTTTATGACTTTCGGAGTCACCTAGTGCAG,8630 fluorescence intensity (a.u.)
13,ATGTGTGTGTTTTTTAGCCGGTGCAATTAGATTTTTCATGCGGAGTCACCTAGTGCAG,11500 fluorescence intensity (a.u.)
14,AACACCACCTGTCGCTGATTCCCTGCCGCATCTTCTCATCCGGAGTCACCTAGTGCAG,10600 fluorescence intensity (a.u.)
15,ATATTCTTATACGTGCACTATTTCTATCCAACGTGGAATCCGGAGTCACCTAGTGCAG,9890 fluorescence intensity (a.u.)
16,TACTCGTCTAGTTGATCACCTCTAACGTTATCATTTTCTTCGGAGTCACCTAGTGCAG,8160 fluorescence intensity (a.u.)
17,ATTGAATTTGTACAATATTCTTCCTGCTGTTTCGGATCCTCGGAGTCACCTAGTGCAG,9840 fluorescence intensity (a.u.)
18,CTCCTCCTCCGTCTTCTTGCGGCCGCCTCGCCTGTTCTTGCGGAGTCACCTAGTGCAG,8580 fluorescence intensity (a.u.)
19,TTCTGCTTTGTAATCTTGTAAATGAATTCATATATTTTTACGGAGTCACCTAGTGCAG,8380 fluorescence intensity (a.u.)
20,ACAATTCCTACATCCATTTAACTATAATATTCATCCGATCCGGAGTCACCTAGTGCAG,8050 fluorescence intensity (a.u.)
21,GGTGACGCCTTATGAATGTACGCGTCCTTACTGTCTCTTTCGGAGTCACCTAGTGCAG,8600 fluorescence intensity (a.u.)
22,CCGTGCACGCTCCCAGATCATGCCACGTGGGTGGGCCCCACGGAGTCACCTAGTGCAG,9020 fluorescence intensity (a.u.)
23,GATGGAGTACTAGTTGACTTGACCTATCAGGCTCTCACCCCGGAGTCACCTAGTGCAG,8580 fluorescence intensity (a.u.)
24,TCACAAATGACAGAACTTACAGGCTCTTCACCTCTCTACTCGGAGTCACCTAGTGCAG,9310 fluorescence intensity (a.u.)
25,GGCTCGGGGCGGCGGAATCATGGGCGATTGGGGCGGCAACCGGAGTCACCTAGTGCAG,22500 fluorescence intensity (a.u.)
26,TTGGCCTCTTTTCCAATTGTAGTGGCATACGGCCCACTTCCGGAGTCACCTAGTGCAG,8740 fluorescence intensity (a.u.)
27,CATATACTACATTTTCTTCTTACTACCATTTCAATTCAACCGGAGTCACCTAGTGCAG,9380 fluorescence intensity (a.u.)

# Two successive entries already listed, for reference:
row,Sequence,binding signal
22,GGGAGAGCACGGGTGGGACGAGAGGGAGGAGGGGACTGGGCGGAGTCACCTAGTGCAG,12000 fluorescence intensity (a.u.)
23,ATAGTTGGTGTGTTGATTTGCCGGGTCGATTAGATCTACCCGGAGTCACCTAGTGCAG,11200 fluorescence intensity (a.u.)
